In PMC5458466, “DNA‐induced unfolding of the thyroid hormone receptor α A/B domain through allostery”:
No constants are given. Whether binding was seen depends on the method and setting.

How the values were obtained:
[1] = biological target: TRα (A/B + DBD), chicken thyroid hormone receptor α1, amino acids 1–154 (chicken) (UniProt P04625); experiment: SEC; size-exclusion chromatography on S200 Superdex 16/60 in 50 mM HEPES pH 7.5, 125 mM NaCl, 5 mM MgCl2, 1 mM TCEP; protein analysed by SDS/PAGE; both purified
[2] = biological target: TRα (DBD), chicken thyroid hormone receptor α1, amino acids 37–154 (chicken) (UniProt P04625); experiment: as above

B1: TRα (A/B + DBD), chicken thyroid hormone receptor α1, amino acids 1–154 (domain or fragment, UniProt P04625 1-154)
chain: MEQKPSTLDPLSEPEDTRWLDGKRKRKSSQCLVKSSMSGYIPSYLDKDEQCVVCGDKATGYHYRCITCEGCKGFFRRTIQKNLHPTYSCKYDGCCVIDKITRNQCQLCRFKKCISVGMAMDLVLDDSKRVAKRKLIEENRERRRKEEMIKSLQH
With B1 the binding [1] was “no binding”.

B2: TRα (DBD), chicken thyroid hormone receptor α1, amino acids 37–154 (domain or fragment, UniProt P04625 37-154)
chain: MSGYIPSYLDKDEQCVVCGDKATGYHYRCITCEGCKGFFRRTIQKNLHPTYSCKYDGCCVIDKITRNQCQLCRFKKCISVGMAMDLVLDDSKRVAKRKLIEENRERRRKEEMIKSLQH
For B2, the binding [2] was “no binding”.
